These are yes or no findings as the source states them, for the method shown. Some entries that bind do so weakly or less than the wild type.
B1: antibody 1 (antibody, V domains shown)
VH: QLQLVESGGGTVQTGGSLRLACVVSGPTYSFYDMGWFRRAPGKEREFVAAVTASGDTTIYADSVKGRFTIARDNAKNTVYLQMNSLKSEDTGAYYCAAGEYSSTAATYYYWGQGTQVTVSS
notes: expressed in CHO cells
B2: antibody 10 (antibody, V domains shown)
VH: QVQLVESGGGLVQPGGSLTLSCAVSGITFSRSVMGWFRQAPGKLRELVAGITSDDNTDYADSVKGRFTISRDNAKNTVYLQMNSLKPEDTAVYYCNILPDSRLGWGQGTQVTVSS
notes: expressed in CHO cells; also called chimeric antibody 10
B3: antibody 11 (antibody, V domains shown)
VH: EVQLVESGGGLVQPGESLRLSCVASGGDFRFKSMGWYRQAPGKLRELVAGITTGGVTDYADSVKGRFTISRDNANKAVWLQMNRLKPDDTAVYDCNTLGAAAYDWGQGTQVTVSS
notes: expressed in CHO cells
B4: antibody 12 (antibody, V domains shown)
VH: EVQLVESGGDLVQPGGSLRLSCAAFGSSFSIDMMGWYRQVPGKQRELVAGITKGGFADYADSVKGRFTISMDAAKNTVYLQMNSLKPEDTAVYYCNTLPTHSDWGQGTQVTVSS
notes: expressed in CHO cells
B5: antibody 19 (antibody, V domains shown)
VH: EVQVVESGGDLVQPGGSLRLSCAAFGSSFSIDMMGWYRQVPGKQRELVAGITKGGFADYADSVKGRFTISMDAAKNTVYLQMNSLKPEDTAVYYCNTLPTHSDWGQGTQVTVSS
notes: expressed in CHO cells
B6: antibody 13 (antibody, V domains shown)
VH: EVQLVESGGGLVQPGGSLRLSCAASGGIFGSTHMGWYRQAPGKLREMVAGITSTGNHRNVADSVKGRFTISKDNAKNTLYLQMNSLKPEDTAVYYCNSFPDQVFNWGQGTQVTVSS
notes: expressed in CHO cells
B7: antibody 2 (antibody, V domains shown)
VH: QVQLVESGGGLVQPGGSLRLSCAASGSIFSVNEMGWYRQAPGKLRELVAAITSDGTTAYADSVKGRFTISRDNAKNTVYLQMNSLKPEDTAVYDCNTWPEARGDWGQGTQVTVSS
notes: expressed in CHO cells
B8: antibody 14 (antibody, V domains shown)
VH: QLQLVESGGGLVQPGGSLRLSCAVSASIFSVNEMGWYRQAPGKLRELVAAITSDGTTAYADSVKGRFTISRDNAKNTVYLQMNSLKPEDTAVYDCNTWPQARGDWGQGTQVTVSS
notes: expressed in CHO cells
B9: antibody 15 (antibody, V domains shown)
VH: EVQLVESGGGSVQTGGSLRLSCAASGPTFNFYGMAWFRQAPGKEREFVASIIPGSGDTSYASSVRGRFTISEDNARNNAYLQMNTLKPEDTAVYYCAAGTGGIYSSDYPYWGQGTQVTVSS
notes: expressed in CHO cells
B10: antibody 16 (antibody, V domains shown)
VH: EVQLVESGGGLVQAGGSLRLSCAASGISLITYNMGWYRQAPGKLRELVAGITTGGITDYTDSVKGRFTISRDNAKNTLYLQMNSLKPEDTAVYYCDTLGMANYWGQGTQVTVSS
notes: expressed in CHO cells
B11: antibody 17 (antibody, V domains shown)
VH: QLQLVESGGGLVQPGGSLRLSCAASGSIDSINAMGWYRQAPGKLRELVAGITRGGDVNYADSVKGRFTISRVDARNTVTVYLQMNSLKPEDTAVYYCNNLGFPSDWAQGTQVTVSS
notes: expressed in CHO cells
B12: antibody 18 (antibody, V domains shown)
VH: EVQLVESGGGLVQPGGSLRLSCAAAGIRFSIANMGWYRQAPGKLHEMVAGITSDGFTNYADSVKGRFTISRDNAKNTVYLQMNNLKPEDTAVYYCDSFPTRHYWGQGTQVTVSS
notes: expressed in CHO cells; also called chimeric antibody 18
B13: antibody 20 (antibody, V domains shown)
VH: EVQLVESGGGLVQPGGSLRLSCAASGSAFSIEPWGWYRQAPGQLRELVAGITSDDKTDYADSVKDRFTISRDNAKNTVFLQMNSLKPEDTAVYYCNVLGWPRDDYWGQGTQVTVSS
notes: expressed in CHO cells
B14: antibody 21 (antibody, V domains shown)
VH: EVQLVESGGGLVQPGGSLRLSCAASGSTYAFYNMGWFRQRPGKEREFAAAILWGRSGVYTTYADSVKGRFTISRDNAQNTVYLQMNSLKPEDTAVYYCAAGLGTMRANEYDYWGQGTQVTVSS
notes: expressed in CHO cells
B15: antibody 22 (antibody, V domains shown)
VH: QVQLVESGGGLVQPGGSLRLSCAASGSIFSANVMGWYRQAPGKLRELVAGMHSGGSANYADSVKGRFTISKDNAKNTMYLQMNSLKPEDTAVYYCNFGLGFDGHDYWGQGTQVTVSA
notes: expressed in CHO cells
B16: antibody 23 (antibody, V domains shown)
VH: EVQLVESGGGLVQPGGSLRLSCAASGSIFSPNGIGWYRQAPGKLRELVAGITGNGLTDYADSVKGRFTISRDSAKNTVYLQMNSLKTEDTAVYYCNLLLNHAEWGQGTQVTVSS
notes: expressed in CHO cells; also called chimeric antibody 23
B17: antibody 3 (antibody, V domains shown)
VH: QLQLVESGGGLVQTGDSTKLSCTASGRSFSINDMGWYRQAPGKLRELVAGITSGGSTNYADSVKGRFTISRDNAKNTVYLQMNSLKPEDTAVYYCNVLGWPDFGSWGQGTQVTVSS
notes: expressed in CHO cells
B18: antibody 4 (antibody, V domains shown)
VH: QVQLVESGGGLVQPGGSLRLSCAASGSIFKINAMGWYRQAPGKLRELVAGITSGGSTNYADSVKGRFTISRDNAKNTLYLQMNSLKPDDTAVYYCNQLGFPQYWGQGTQVTVSS
notes: expressed in CHO cells
B19: antibody 5 (antibody, V domains shown)
VH: EVQVVESGGGLVQAGGSLTLSCAASGRPFSTFPTSMGWFRQAPGKEREFVAAISESGLNTYYRDSVKGRFGISRDNAKNTVYLQMNTLTAEDTAVYFCAAAPGYMTTDSQYYLGNKYQYWGQGTQVTVSS
notes: expressed in CHO cells
B20: antibody 6 (antibody, V domains shown)
VH: QVQLVESGGGLVQPGGSLRLSCAASRAIFPEYSIAWFRQAPGKEREGVALVSRIGDRVDYADSVKGRFTISRDNAKNTVYLQMNSLKPEDTAVYHCAAGQLSSSTYYGDEYVYWGQGTQVTVSS
notes: expressed in CHO cells
B21: antibody 7 (antibody, V domains shown)
VH: EVQVVESGGGLVQAGGSLRLSCAASGRTFSNYNVGWFRQAPGKEREFLATISESGGSTYYADSVKGRFTISRDNGINMVYLQMSSLKPEDTAVYYCAESRIFSFSYADGRGYAYWGQGTQVTVFS
notes: expressed in CHO cells
B22: antibody 8 (antibody, V domains shown)
VH: QVQLVESGGGLVQTGDSLRLSCAASGRTYDNYAMGWFRQAPGKEREFVAAFSQNGGRTDYADSVKGRFAISDDRSTVHLDMNSLLPEDTAVYYCAARPPAYFSNAVYSKVDEYRYWGQGTQVTVSS
notes: expressed in CHO cells
B23: antibody 9 (antibody, V domains shown)
VH: QVQLVESGGGSVQAGGSLRLSCAASGRTFSDYVMGWFRQAPGKEREFVGTITRIGGMPYYADFVKGRFTISRDYAKNAGYLQLNNLKPEDTALYYCALDLRLRLGVTPREYDYWGQGTQVTVSS
notes: expressed in CHO cells

Target: T1, NKp30 on NK cells (UniProt O14931 19-201, limits assumed)
T1 sequence (looked up): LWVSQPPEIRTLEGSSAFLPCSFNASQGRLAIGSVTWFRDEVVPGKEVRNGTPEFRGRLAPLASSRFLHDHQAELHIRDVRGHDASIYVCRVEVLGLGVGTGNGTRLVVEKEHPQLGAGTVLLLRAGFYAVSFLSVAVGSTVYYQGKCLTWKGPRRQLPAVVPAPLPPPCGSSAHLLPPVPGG
Assay: flow cytometry on NK cells, antibody 40 µg/mL diluted 1:3, goat anti-human Fc-FITC, MFI (Example 7)

| Binder | binding |
| --- | --- |
| B1 | binds |
| B2 | binds |
| B3 | binds |
| B4 | binds |
| B5 | binds |
| B6 | binds |
| B7 | binds |
| B8 | binds |
| B9 | binds |
| B10 | binds |
| B11 | binds |
| B12 | binds |
| B13 | binds |
| B14 | binds |
| B15 | binds |
| B16 | binds |
| B17 | binds |
| B18 | binds |
| B19 | binds |
| B20 | binds |
| B21 | binds |
| B22 | binds |
| B23 | binds |

— patent US20240150460A1 (SHENGHE CHINA BIOPHARMACEUTICAL, published 2024)
